Experimental data taken from PubChem BioAssay AID493014 (National Center for Advancing Translational Sciences (NCATS), 2011).
Out of some 340,000 compounds screened, about 170 (0.05%) were called active. This list was built around the results that the source calls inconclusive (neither active nor inactive); the mix of calls is not that of the screen. Calls come from the whole dose curve; as a rule, active = well fitted inhibition curve with a large enough effect in the signal ratio, with a control signal flat (not every such curve was filed as active); inconclusive = small, poorly fitted or top-dose-only effect, or effect the other way, or a change in a side signal; inactive = flat fitted curve, though single readings scatter; the % refers to the signal ratio. A potency beside an inconclusive call is a rough fit, not a confirmed value.

Assay: qHTS Assay to Find Inhibitors of Chronic Active B-Cell Receptor Signaling;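 for activity change, negative = inhibition: plate controls were basal doxycycline-induced cells for no effect and cells given 10 µM MG132 for full effect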
Details: ABC-DLBCL IkBa-CBG/CBR reporter, luminescence ratio (green luciferase fused to IkBa over red control in TMD8 lymphoma cells), 4 h; activity change, negative = inhibition: at 46.1 µM (top of the series) unless noted
Outline: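 Compounds up to 46 uM were incubated four hours with TMD8 cells whose green CBG68 luciferase is fused to IkappaBalpha; red CBR luminescence normalised the signal, and concentration-effect curves were fitted to fusion, red and ratio data.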
Potency is the fitted concentration of half-maximal effect.

| Compound | activity change, negative = inhibition | Potency |
| --- | --- | --- |
| O=C(O)[C@H]1CCCC[C@H]1C(=O)Nc1ccc(Nc2ccccc2)cc1 | inconclusive: 12.7% | – |
| CC(C)COP(=O)(OCC(C)C)C(O)c1ccc(N(C)C)cc1 (stereo unspecified) | – | inconclusive: 12.6 µM [falling, partial curve, poor fit] |
| COCCCNc1nc2c(c(=O)[nH]c(=O)n2C)n1CCCc1ccccc1 | inactive | – |
| N#Cc1ccc(S(=O)(=O)NCC(=O)OCC(=O)N2CCCC2=O)cc1 | inactive | – |
| CCCOc1ccc(OCCn2nc(C(=O)O)c3ccccc3c2=O)cc1 | inactive | – |
| COc1ccc(C)cc1NC(=O)CSc1nc(=O)n(Cc2ccccn2)c2c1CCC2 | – | inconclusive: 35.5 µM [falling, single point] |
| CCC(=O)Nc1ccc(NC(=S)NC(=O)c2cc3ccccc3o2)cc1 | inconclusive: 0.778% | – |
| O=C(CC1Sc2ccccc2NC1=O)Nc1cccc(C(=O)O)c1 (stereo unspecified) | – | inconclusive: 23.1 µM [falling, partial curve] |
| Cc1cc(OC(=O)c2ccc(S(=O)(=O)N(C)C)cc2)c([N+](=O)[O-])c(=O)[nH]1 | inconclusive: 3.77% | – |
| COc1ccccc1C(=O)NC(CCSC)C(=O)NCc1ccccn1 (stereo unspecified) | inconclusive: 10% | – |
| CCN(CC)c1ccc(/C=N/NC(=O)c2ccc3nc[nH]c3c2)c(O)c1 | inconclusive: 0.598% | – |
| CCc1ccc2nc(N3CCN(C(=O)C4CC4)CC3)sc2c1 | inconclusive: 22.6% | – |
| NC(C(=O)O)C(c1ccccc1)C(F)F (stereo unspecified) | inconclusive: -6.31% | – |
| COc1ccc(C2CC(c3c(O)cc(C)oc3=O)=NCCS2)c(OC)c1 (stereo unspecified) | – | inconclusive: 15.8 µM [falling, partial curve] |
| Cc1ccc(N(C(=O)CCl)C(C(=O)NC2CCCCC2)c2cccnc2)cc1C (stereo unspecified) | – | inconclusive: 6.51 µM [falling, partial curve] |
| O=C(NC1=NC2CCCCC2N1)c1ccccc1 (stereo unspecified) | inconclusive: 4.04% | – |
| Cn1nnc(NC(=S)NC(=O)c2ccccc2)n1 | – | inconclusive: 8.91 µM [falling, partial curve] |
| O=C(Nc1ccccc1)N1CCCN(c2nccc(C(F)(F)F)n2)CC1 | inactive | – |
| CSc1ncc(Cl)c(C(=O)Nc2cccc(C)c2)n1 | inactive | – |

| Compound | activity change, negative = inhibition | Potency |
| --- | --- | --- |
| CCCc1cc(NCCCCO)n2c(nc3ccccc32)c1C#N | inconclusive: 9.7% | – |
| Cc1cccc(Nc2ncnc3c2cnn3Cc2ccccc2)c1 | inactive | – |
| CCN(CC)S(=O)(=O)c1ccc2oc(C(=O)NC3CC3)c(C)c2c1 | – | inconclusive: 12.6 µM [rising, partial curve] |
| Fc1ccc(CNCc2ccc(Br)cc2)cc1 | inconclusive: 1.55% | – |
| CCc1noc2c1/C(=N\O)CC(c1ccccc1)C2 (stereo unspecified) | – | inconclusive: 8.2 µM [rising, partial curve, poor fit] |
| CCCCS(=O)(=O)N1CCN(S(=O)(=O)c2ccc(Cl)s2)CC1 | inconclusive: -3.93% | – |
| O=C(CSc1nnc(-c2ccccc2F)n1C1CC1)Nc1cccnc1Cl | inconclusive: 7.4% | – |
| COc1ccccc1NC(=O)c1cc(C)oc1C | inconclusive: 0.297% | – |
| Cc1ccc(NC(=O)CCC(=O)N/N=C/c2cccs2)cc1 | inactive | – |
| O=C(O)c1ccc(Cl)c2c1C1C=CCC1C(c1ccccn1)N2 (stereo unspecified) | inactive | – |
| Cn1cccc1CNC1CCCC1 | inactive | – |
| OCCNc1c2ccccc2nc2ccccc12 | – | inconclusive: 12.6 µM [rising, single point] |
| Cc1nn(CC(=O)Nc2ccc(S(=O)(=O)N(C)C)cc2)c(C)c1[N+](=O)[O-] | inconclusive: -48.3% | – |
| CN(C)c1ccc(C(=O)/C=C/c2ccco2)cc1 | inconclusive: -22.7% | – |
| O=C(CSc1nnc(-c2ccc(C(F)(F)F)cn2)o1)Nc1cccc(Cl)c1 | inconclusive: 5.9% | – |
| CCCC(=O)N1CC(=O)Nc2ccc(F)cc2C1c1ccccc1 (stereo unspecified) | inconclusive: -3.9% | – |
| COCCNCC(=O)Nc1ccc(C)c(S(=O)(=O)N2CCCCC2)c1 | inactive | – |
| Nc1ccccc1SCc1ccccc1 | inactive | – |
| O=C(Nc1ccc(Br)cc1)c1ccccc1Br | inactive | – |

| Compound | activity change, negative = inhibition | Potency |
| --- | --- | --- |
| O=C(Nc1nc2ccc(C(=O)N3CCCCC3)cc2s1)C1CCCCC1 | – | inconclusive: 35.5 µM [falling, single point] |
| O=C(COC(=O)C1C2CC3OC(=O)C1C3C2)Nc1ccc(Br)cc1 (stereo unspecified) | inactive | – |
| CCc1ccccc1NC(=O)c1cc(=O)c2ccccc2o1 | inconclusive: -14.1% | – |
| Cc1cc(C)n2nc(-c3sccc3-n3c(C)ccc3C)cc2n1 | inactive | – |
| COc1ccc(Oc2nc(-c3ccccn3)ncc2OC)cc1 | inconclusive: 2.65% | – |
| C[C@]12C=CC(=O)C=C1CC[C@@H]1[C@@H]2[C@@H](O)C[C@@]2(C)[C@H]1CC[C@]2(O)C(=O)COC(=O)CCC(=O)NCCc1ccc(O)cc1 | inconclusive: -3.27% | – |
| O=C(N/N=C/c1ccccc1)C(O)c1ccccc1 (stereo unspecified) | – | inconclusive: 22.4 µM [falling, single point] |
| CCCc1cc(C(=O)Nc2cccc(Cl)c2C)no1 | – | inconclusive: 20 µM [falling, partial curve] |
| O=C(NCc1cccnc1)c1ccc2c(c1)C(=O)N(Cc1ccccc1)C2=O | inconclusive: -0.255% | – |
| COc1ccc(CCN/C=C2/CC(=O)NC2=O)cc1OC | inconclusive: -3.74% | – |
| CCC(CC)C(=O)Nc1nnc(-c2cccs2)s1 | inconclusive: -1.64% | – |
| CCOc1ccccc1NC(=O)/C=C/c1ccc(S(=O)(=O)N2CCOCC2)cc1 | – | inconclusive: 2.31 µM [falling, full curve, poor fit] |
| CCOC(=O)CN1C(=O)S/C(=C\c2ccc(-c3ccc(C(=O)O)c(Cl)c3)o2)C1=O | inconclusive: -3.23% | – |
| COc1cccc(S(=O)(=O)NCc2ccc(C(=O)Nc3ccc(C)cc3)cc2)c1 | inconclusive: 1.34% | – |
| S=C(NCc1ccco1)Nc1ccc(Br)cn1 | inactive | – |
| O=[N+]([O-])c1ccc(O)c(/C=N/Nc2nc3ccccc3[nH]2)c1 | inconclusive: 352% | – |
| CCOC(=O)c1cccc(C(=O)OCC)n1 | inactive | – |
| CCOC(=O)C1=C(N)N2C(=O)C(C)SC2=C(C(=O)OCC)C1c1ccccc1 (stereo unspecified) | inactive | – |

15 compounds out of the list, ordered by count of non-hydrogen atoms, smallest number first.

| Compound | activity change, negative = inhibition | Potency |
| --- | --- | --- |
| Cn1cccc1CNC1CCCC1 | inactive | – |
| NC(C(=O)O)C(c1ccccc1)C(F)F (stereo unspecified) | inconclusive: -6.31% | – |
| O=C(Nc1ccc(Br)cc1)c1ccccc1Br | inactive | – |
| O=C(NC1=NC2CCCCC2N1)c1ccccc1 (stereo unspecified) | inconclusive: 4.04% | – |
| CCc1noc2c1/C(=N\O)CC(c1ccccc1)C2 (stereo unspecified) | – | inconclusive: 8.2 µM [rising, partial curve, poor fit] |
| O=[N+]([O-])c1ccc(O)c(/C=N/Nc2nc3ccccc3[nH]2)c1 | inconclusive: 352% | – |
| COc1ccc(Oc2nc(-c3ccccn3)ncc2OC)cc1 | inconclusive: 2.65% | – |
| O=C(CC1Sc2ccccc2NC1=O)Nc1cccc(C(=O)O)c1 (stereo unspecified) | – | inconclusive: 23.1 µM [falling, partial curve] |
| COCCNCC(=O)Nc1ccc(C)c(S(=O)(=O)N2CCCCC2)c1 | inactive | – |
| COc1ccc(C2CC(c3c(O)cc(C)oc3=O)=NCCS2)c(OC)c1 (stereo unspecified) | – | inconclusive: 15.8 µM [falling, partial curve] |
| O=C(CSc1nnc(-c2ccc(C(F)(F)F)cn2)o1)Nc1cccc(Cl)c1 | inconclusive: 5.9% | – |
| CCOC(=O)C1=C(N)N2C(=O)C(C)SC2=C(C(=O)OCC)C1c1ccccc1 (stereo unspecified) | inactive | – |
| Cc1ccc(N(C(=O)CCl)C(C(=O)NC2CCCCC2)c2cccnc2)cc1C (stereo unspecified) | – | inconclusive: 6.51 µM [falling, partial curve] |
| COc1ccc(C)cc1NC(=O)CSc1nc(=O)n(Cc2ccccn2)c2c1CCC2 | – | inconclusive: 35.5 µM [falling, single point] |
| C[C@]12C=CC(=O)C=C1CC[C@@H]1[C@@H]2[C@@H](O)C[C@@]2(C)[C@H]1CC[C@]2(O)C(=O)COC(=O)CCC(=O)NCCc1ccc(O)cc1 | inconclusive: -3.27% | – |
